# Laboratory results from patent publication US20030003517A1, “Methods of detecting dissociated nuclear hormone receptor ligands” (priority 2001, published 2003).
# By UniProt entry, the sequences of proteins in these tests, tags left out. Where a name states a change or a piece, a line headed by the entry shows the natural chain unless it says otherwise. Residues count along the entry.
# UniProt P19793: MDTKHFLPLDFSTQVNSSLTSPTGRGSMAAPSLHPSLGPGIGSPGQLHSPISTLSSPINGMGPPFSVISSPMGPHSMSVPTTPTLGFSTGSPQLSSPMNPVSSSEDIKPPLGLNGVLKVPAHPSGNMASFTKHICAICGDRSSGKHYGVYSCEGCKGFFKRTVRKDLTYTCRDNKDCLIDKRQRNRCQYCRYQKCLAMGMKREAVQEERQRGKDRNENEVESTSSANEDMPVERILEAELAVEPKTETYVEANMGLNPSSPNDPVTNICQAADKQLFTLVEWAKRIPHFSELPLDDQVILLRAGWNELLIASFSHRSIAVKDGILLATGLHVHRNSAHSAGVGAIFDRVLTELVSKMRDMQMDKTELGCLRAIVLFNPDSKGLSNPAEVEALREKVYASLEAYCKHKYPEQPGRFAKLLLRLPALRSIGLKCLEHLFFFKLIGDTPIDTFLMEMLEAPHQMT
# UniProt Q9Y6Q9, residues 2-1424: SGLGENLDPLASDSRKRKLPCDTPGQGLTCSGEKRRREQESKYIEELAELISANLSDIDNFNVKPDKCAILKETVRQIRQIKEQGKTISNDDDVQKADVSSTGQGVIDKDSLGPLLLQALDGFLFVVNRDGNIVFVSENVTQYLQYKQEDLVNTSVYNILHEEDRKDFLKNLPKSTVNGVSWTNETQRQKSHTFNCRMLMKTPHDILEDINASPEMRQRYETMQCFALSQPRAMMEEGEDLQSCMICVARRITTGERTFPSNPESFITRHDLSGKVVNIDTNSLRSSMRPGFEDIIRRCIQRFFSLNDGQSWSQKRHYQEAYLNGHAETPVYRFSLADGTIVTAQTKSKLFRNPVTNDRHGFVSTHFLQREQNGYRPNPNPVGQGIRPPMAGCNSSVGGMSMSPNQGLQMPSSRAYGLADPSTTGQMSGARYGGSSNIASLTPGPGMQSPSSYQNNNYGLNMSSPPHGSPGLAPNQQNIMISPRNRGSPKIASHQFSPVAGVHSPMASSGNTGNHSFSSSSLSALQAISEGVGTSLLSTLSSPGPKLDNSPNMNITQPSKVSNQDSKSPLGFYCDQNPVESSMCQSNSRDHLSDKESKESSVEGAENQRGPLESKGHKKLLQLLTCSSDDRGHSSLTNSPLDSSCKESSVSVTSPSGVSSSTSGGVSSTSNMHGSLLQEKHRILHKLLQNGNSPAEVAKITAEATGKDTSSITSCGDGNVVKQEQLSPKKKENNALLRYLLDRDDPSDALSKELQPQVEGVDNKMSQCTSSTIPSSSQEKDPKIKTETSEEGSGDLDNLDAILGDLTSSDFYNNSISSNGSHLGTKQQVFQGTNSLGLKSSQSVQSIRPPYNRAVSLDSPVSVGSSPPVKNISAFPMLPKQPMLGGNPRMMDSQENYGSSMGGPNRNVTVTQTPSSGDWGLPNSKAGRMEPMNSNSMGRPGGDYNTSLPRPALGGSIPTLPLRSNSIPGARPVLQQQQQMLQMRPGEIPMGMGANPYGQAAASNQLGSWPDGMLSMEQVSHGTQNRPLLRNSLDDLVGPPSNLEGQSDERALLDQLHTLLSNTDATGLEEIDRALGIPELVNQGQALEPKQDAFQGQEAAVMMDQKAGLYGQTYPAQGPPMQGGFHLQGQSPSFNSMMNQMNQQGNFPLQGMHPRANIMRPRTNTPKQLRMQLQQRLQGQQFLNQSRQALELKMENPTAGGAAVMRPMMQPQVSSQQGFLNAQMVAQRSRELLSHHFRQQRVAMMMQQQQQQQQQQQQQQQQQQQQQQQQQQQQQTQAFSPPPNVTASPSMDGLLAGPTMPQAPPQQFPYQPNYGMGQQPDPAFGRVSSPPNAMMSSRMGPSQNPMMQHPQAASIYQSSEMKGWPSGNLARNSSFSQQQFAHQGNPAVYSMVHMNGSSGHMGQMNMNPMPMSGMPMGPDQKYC
# UniProt O75376: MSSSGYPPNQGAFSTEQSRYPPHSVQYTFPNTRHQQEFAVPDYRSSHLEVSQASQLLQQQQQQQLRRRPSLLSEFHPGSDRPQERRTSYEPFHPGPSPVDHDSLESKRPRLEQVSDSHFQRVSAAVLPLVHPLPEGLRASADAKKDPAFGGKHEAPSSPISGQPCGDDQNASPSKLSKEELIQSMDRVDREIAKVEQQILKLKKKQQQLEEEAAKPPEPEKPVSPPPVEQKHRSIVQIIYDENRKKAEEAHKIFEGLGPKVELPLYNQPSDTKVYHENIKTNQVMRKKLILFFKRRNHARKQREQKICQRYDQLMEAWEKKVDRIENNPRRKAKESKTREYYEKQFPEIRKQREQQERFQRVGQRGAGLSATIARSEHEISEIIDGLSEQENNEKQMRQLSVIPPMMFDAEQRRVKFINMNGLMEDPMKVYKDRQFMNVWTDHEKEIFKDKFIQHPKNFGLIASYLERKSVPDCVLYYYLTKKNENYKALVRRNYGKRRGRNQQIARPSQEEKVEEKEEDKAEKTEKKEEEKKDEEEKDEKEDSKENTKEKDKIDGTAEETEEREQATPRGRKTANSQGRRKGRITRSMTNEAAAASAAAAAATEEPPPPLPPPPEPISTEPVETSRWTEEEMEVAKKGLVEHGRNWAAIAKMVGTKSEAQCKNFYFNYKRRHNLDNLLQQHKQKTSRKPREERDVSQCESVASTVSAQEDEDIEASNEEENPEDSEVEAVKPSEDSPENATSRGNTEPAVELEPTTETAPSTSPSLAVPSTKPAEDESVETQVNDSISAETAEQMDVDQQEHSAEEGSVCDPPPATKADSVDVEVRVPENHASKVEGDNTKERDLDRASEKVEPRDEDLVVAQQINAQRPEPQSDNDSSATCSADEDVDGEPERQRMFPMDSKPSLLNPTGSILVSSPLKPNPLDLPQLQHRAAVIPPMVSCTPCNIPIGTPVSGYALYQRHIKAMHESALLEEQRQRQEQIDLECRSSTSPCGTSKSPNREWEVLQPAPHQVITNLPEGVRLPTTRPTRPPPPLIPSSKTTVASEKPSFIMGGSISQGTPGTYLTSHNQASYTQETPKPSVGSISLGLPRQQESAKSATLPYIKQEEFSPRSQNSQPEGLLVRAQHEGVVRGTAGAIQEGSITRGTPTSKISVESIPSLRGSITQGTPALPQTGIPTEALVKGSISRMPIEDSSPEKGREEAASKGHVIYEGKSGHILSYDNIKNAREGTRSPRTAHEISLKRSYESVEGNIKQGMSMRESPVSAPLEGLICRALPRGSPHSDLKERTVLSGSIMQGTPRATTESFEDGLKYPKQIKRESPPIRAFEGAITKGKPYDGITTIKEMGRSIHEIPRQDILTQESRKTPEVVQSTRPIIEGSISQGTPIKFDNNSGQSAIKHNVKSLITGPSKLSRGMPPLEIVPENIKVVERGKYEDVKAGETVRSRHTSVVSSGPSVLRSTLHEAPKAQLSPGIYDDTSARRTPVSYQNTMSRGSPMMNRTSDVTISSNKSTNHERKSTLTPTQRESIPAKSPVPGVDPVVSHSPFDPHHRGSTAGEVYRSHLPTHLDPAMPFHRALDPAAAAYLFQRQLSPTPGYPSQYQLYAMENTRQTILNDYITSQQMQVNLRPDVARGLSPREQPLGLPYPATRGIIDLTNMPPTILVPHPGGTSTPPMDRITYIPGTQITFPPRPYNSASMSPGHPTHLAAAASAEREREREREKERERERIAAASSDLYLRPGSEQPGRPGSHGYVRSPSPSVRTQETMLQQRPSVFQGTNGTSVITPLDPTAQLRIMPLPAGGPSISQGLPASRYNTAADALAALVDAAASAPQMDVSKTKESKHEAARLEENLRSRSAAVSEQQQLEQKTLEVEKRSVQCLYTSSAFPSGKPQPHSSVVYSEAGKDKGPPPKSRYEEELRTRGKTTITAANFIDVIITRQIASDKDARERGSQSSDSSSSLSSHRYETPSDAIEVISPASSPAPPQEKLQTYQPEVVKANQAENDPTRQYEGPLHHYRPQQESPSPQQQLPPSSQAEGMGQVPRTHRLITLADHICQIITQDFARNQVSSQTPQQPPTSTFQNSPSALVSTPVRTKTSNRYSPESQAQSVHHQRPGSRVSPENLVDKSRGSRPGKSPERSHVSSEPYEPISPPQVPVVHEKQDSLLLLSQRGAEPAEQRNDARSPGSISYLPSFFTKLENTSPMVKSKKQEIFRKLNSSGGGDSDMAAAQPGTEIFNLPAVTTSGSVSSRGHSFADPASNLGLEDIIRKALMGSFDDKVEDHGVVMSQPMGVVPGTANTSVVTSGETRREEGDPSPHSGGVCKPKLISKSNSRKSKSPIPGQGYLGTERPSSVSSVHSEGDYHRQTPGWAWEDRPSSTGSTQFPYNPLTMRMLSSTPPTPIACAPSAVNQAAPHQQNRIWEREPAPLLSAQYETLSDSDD
# These are yes or no findings as the source states them, for the method shown. Binding seen in cells or lysates may run through a third protein. Some binding calls cover weakened binding; strength is not graded here. For some assays here: Sequences can lack the tags named with a protein.
# Tests used:
# [1] = biological target: RARα/RXRα heterodimer (wild type RARα-V5 with RXRα) in the RAR/RXR/DNA ternary complex (human) (UniProt P19793); test: DNA dependent coregulator recruitment assay (co-immunoprecipitation, western blot), ligands at 1 µM
# [2] = biological target: RARα/RXRα heterodimer (wild type RARα-V5 with RXRα) in the RAR/RXR/DNA ternary complex (human) (UniProt P19793); test: co-immunoprecipitation (anti-V5) of ternary complex, western blot; N-CoR bound without ligand, released with 1 µM TTNPB
# [3] = biological target: RARα/RXRα heterodimer (wild type RARα-V5 with RXRα) in the RAR/RXR/DNA ternary complex (human) (UniProt P19793); test: co-immunoprecipitation of ternary complex at escalating doses of AGN194794 or AGN196382, western blot
# [4] = biological target: RARα/RXRα?C heterodimer (RARα-V5 with the dominant negative truncated RXRα) in the ternary complex (human) (UniProt P19793); test: co-immunoprecipitation (anti-V5) of ternary complex from transfected CV-1 extract, anti-N-CoR western blot
# [5] = biological target: RARα/RXRα heterodimer (wild type RARα-V5 with RXRα) in the RAR/RXR/DNA ternary complex (human) (UniProt P19793); test: co-immunoprecipitation of ternary complex, western blot; ligands at 1 µM
# [6] = biological target: RARα/RXRα?C heterodimer (RARα-V5 with the dominant negative truncated RXRα) in the ternary complex (human) (UniProt P19793); test: co-immunoprecipitation (anti-V5) of ternary complex, western blot; with 1 µM TTNPB
# [7] = biological target: T1, RARα-V5 (human retinoic acid receptor α with V5 epitope tag) (human) (UniProt P10276); test: co-immunoprecipitation with anti-V5, anti-RXRα western blot
# T1 sequence: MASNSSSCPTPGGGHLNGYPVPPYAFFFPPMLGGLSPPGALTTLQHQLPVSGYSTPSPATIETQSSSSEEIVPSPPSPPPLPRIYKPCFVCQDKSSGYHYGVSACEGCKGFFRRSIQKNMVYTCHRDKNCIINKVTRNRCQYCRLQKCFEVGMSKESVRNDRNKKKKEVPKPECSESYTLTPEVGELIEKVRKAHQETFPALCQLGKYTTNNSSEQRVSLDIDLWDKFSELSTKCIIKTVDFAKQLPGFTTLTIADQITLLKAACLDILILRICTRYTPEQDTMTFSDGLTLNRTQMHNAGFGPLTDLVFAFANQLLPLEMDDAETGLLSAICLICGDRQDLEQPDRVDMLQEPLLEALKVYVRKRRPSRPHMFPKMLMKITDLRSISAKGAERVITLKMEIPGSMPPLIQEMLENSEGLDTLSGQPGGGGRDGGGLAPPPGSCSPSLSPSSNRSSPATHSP
substance,measurement,setting,value
ACTR/p/CIP/AIB1/NCoA-3 (from UniProt Q9Y6Q9 2-1424),binding,[1],binds
N-CoR (nuclear receptor corepressor) (from UniProt O75376 1-2440),binding,[2],binds
same,binding,[3],binds
same,binding,[4],binds
same,binding,[5],binds
same,binding,[6],binds
RXRα (retinoid X receptor α) (from UniProt P19793 1-462),binding,[7],binds
RXRα?C (dominant negative RXR derivative truncated at amino acid 448) (from UniProt P19793 1-448) (receptor),binding,[7],binds
